Results are given in words; binding and its absence hold for the method and conditions named.

The values that follow come from publication PMC3961380, “Activation of 2′ 5′-Oligoadenylate Synthetase by Stem Loops at the 5′-End of the West Nile Virus Genome”.

In this experiment the target is recombinant human OAS1 p42 isoform (transcript variant 2) (human) (UniProt P00973). Put plainly: AUC + other: dynamic light scattering; sedimentation velocity at 0.4, 0.6 and 0.8 mg/mL OAS1 in 50 mM Tris, 100 mM NaCl, 1 mM DTT (pH 7.5), 20.0 °C, 45,000 rpm; DLS at 3 concentrations in the same buffer, 20.0 °C; molecular weight from s and rH by the Svedberg equation; both purified.

B1: recombinant human OAS1 p42 isoform (transcript variant 2) (enzyme, UniProt P00973-2 1-364)
chain: MMDLRNTPAKSLDKFIEDYLLPDTCFRMQINHAIDIICGFLKERCFRGSSYPVCVSKVVKGGSSGKGTTLRGRSDADLVVFLSPLTTFQDQLNRRGEFIQEIRRQLEACQRERAFSVKFEVQAPRWGNPRALSFVLSSLQLGEGVEFDVLPAFDALGQLTGGYKPNPQIYVKLIEECTDLQKEGEFSTCFTELQRDFLKQRPTKLKSLIRLVKHWYQNCKKKLGKLPPQYALELLTVYAWERGSMKTHFNTAQGFRTVLELVINYQQLCIYWTKYYDFKNPIIEKYLRRQLTKPRPVILDPADPTGNLGGGDPKGWRQLAQEAEAWLNYPCFKNWDGSPVSSWILLVRPPASSLPFIPAPLHEA
Take B1: the binding result was “no binding (tested: 0.4, 0.6 and 0.8 mg/mL)”.
